In article PMC12866797, “Targeting DESI2 as a Novel Therapeutic Strategy for JAK2‐Mutant Leukemias” (Advanced Science, 2025):
No constants are given. Whether binding was seen depends on the method and setting. Binding seen in cells or lysates may run through a third protein. A yes stands for co-enrichment or nearness to the bait. Other partners may have been found.

Sequences of proteins named here, by UniProt entry; tags and fusion partners are left off. A change or cut given only in a name is not applied to a line headed by its entry.
UniProt O60674: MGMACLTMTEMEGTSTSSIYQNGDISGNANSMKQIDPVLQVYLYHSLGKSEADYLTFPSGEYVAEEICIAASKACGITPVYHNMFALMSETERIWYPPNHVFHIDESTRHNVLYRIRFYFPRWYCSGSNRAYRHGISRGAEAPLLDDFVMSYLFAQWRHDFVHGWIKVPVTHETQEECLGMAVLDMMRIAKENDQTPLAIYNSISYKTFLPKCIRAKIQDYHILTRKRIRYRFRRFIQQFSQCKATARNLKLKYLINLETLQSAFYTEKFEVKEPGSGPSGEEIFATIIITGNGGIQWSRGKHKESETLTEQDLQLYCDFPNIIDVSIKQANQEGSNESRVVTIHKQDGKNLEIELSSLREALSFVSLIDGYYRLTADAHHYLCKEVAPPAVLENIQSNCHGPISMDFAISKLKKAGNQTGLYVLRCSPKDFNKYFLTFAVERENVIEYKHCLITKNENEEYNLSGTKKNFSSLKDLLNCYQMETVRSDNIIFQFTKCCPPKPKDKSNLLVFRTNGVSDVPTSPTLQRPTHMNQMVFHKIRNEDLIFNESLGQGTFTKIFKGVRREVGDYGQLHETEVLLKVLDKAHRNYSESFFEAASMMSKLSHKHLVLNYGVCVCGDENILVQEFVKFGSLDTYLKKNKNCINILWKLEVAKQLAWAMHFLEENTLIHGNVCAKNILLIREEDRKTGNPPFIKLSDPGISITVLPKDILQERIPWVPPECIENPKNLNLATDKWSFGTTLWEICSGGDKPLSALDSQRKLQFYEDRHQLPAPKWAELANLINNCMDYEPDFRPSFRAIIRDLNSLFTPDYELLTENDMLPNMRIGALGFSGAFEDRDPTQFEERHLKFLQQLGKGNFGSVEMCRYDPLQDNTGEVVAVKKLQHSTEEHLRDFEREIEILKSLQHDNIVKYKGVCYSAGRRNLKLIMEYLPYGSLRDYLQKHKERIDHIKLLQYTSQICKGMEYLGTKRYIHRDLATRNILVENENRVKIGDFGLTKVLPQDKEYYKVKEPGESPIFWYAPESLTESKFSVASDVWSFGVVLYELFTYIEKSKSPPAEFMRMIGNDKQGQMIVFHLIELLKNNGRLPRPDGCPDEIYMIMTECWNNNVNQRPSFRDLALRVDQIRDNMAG
UniProt Q9BSY9: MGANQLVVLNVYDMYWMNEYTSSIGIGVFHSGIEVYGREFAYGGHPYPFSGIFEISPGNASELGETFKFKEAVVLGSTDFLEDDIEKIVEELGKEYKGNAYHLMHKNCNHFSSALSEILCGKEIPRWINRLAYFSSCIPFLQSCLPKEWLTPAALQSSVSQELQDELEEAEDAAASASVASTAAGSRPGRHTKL
UniProt P08238: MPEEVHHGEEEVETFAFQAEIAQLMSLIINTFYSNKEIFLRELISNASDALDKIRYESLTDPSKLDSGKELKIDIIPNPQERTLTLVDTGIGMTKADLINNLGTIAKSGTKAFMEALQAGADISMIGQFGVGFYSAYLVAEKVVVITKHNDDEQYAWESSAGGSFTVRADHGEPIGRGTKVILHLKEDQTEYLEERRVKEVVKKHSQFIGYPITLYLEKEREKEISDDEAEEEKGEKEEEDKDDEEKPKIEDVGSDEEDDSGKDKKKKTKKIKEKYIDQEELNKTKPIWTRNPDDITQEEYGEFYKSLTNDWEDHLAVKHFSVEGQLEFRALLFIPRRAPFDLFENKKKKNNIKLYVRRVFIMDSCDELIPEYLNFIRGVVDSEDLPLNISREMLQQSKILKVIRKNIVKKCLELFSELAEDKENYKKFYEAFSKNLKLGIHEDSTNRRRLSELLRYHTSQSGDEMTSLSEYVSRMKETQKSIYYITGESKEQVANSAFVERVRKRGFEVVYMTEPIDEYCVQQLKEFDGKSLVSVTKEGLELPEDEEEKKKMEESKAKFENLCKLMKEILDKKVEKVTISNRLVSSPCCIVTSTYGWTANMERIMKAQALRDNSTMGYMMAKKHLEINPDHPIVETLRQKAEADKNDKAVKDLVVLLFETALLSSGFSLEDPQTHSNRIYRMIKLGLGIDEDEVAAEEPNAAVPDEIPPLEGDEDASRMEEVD

Molecular target: JAK2-V617F (endogenous, HEL cells) (human (endogenous in HEL)) (UniProt O60674)
Assay: affinity purification with mass spectrometry; anti-JAK2 or IgG immunoprecipitation from lysates of HEL (JAK2-V617F) and K562 (JAK2-WT) cells, LC-MS of the co-precipitated proteins

| binding | Substance |
| --- | --- |
| binds | DESI2 (endogenous, human cell lines) (from UniProt Q9BSY9 1-194) (enzyme) |
| binds | HSP90AB1 (endogenous, HEL cells) (from UniProt P08238 1-724) |
